The list shows a part of the results. Residues, ends and D or L forms follow the SMILES beside them. *: point of attachment. Cbz = O=C(OCc1ccccc1)*
Compound: CC(C)C[C@@H](C=O)NC(=O)[C@H](CC(C)C)NC(=O)[C@H](CC(C)C)NC(=O)OCc1ccccc1
Assay: log2 fold change, soluble protein after heating vs DMSO (PISA); higher = thermal stabilisation; K562 cells, 10 uM, 30 min; active = over 0.2 and 3.5 SD of the protein, either way, in both replicates (recomputed)
Summary of the method: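 K562 cells at 2×10^6 cells/mL were treated for 30 min with 10 μM compound, and aliquots were heated for 3 min over 48°C-58°C before pooling. Extraction used PBS with 0.5% NP-40 at 4°C, and soluble protein was the supernatant after 21,000xg for 90 min, measured by TMTpro 16plex LC-MS/MS with channel sums equalised. Thermal stability values, relative to control samples and from duplicates, are log2 fold changes.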

Protein sequences, listed by entry. Tags and fused reporters are not part of them. Lines headed by an entry give the natural chain unless they say otherwise; changes in a name come on top.
UniProt Q05048: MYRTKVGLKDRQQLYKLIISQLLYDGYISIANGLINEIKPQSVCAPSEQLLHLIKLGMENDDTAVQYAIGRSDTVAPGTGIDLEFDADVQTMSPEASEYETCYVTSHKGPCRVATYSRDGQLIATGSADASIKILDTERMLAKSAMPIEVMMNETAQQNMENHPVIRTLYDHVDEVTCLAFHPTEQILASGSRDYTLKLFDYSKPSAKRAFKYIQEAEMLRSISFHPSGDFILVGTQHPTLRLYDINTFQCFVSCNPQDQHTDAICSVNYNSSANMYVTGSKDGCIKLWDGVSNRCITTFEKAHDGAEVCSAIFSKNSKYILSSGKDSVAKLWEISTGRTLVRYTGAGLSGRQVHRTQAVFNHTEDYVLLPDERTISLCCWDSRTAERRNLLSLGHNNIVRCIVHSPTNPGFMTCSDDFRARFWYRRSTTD
UniProt Q8WVC6: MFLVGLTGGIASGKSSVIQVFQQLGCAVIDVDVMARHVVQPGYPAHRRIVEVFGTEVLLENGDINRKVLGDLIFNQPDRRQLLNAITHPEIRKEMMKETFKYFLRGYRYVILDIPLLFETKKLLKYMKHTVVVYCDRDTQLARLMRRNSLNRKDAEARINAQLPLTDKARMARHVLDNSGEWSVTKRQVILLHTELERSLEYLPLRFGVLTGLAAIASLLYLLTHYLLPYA
UniProt Q69YN2: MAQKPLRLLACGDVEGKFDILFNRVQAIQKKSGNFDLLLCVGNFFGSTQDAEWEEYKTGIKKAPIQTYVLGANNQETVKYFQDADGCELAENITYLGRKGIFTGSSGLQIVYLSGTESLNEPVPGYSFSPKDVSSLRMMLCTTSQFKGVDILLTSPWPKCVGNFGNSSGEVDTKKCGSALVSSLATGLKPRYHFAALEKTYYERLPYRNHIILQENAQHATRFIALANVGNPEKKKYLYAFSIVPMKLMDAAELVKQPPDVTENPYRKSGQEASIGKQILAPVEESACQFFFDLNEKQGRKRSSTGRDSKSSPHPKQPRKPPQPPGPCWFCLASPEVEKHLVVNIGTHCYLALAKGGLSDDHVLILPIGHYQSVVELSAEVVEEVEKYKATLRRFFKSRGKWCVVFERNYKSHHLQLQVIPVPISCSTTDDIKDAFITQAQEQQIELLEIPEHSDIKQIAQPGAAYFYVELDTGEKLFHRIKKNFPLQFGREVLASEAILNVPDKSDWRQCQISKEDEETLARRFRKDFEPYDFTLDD
UniProt Q13617, whole entry, looked up: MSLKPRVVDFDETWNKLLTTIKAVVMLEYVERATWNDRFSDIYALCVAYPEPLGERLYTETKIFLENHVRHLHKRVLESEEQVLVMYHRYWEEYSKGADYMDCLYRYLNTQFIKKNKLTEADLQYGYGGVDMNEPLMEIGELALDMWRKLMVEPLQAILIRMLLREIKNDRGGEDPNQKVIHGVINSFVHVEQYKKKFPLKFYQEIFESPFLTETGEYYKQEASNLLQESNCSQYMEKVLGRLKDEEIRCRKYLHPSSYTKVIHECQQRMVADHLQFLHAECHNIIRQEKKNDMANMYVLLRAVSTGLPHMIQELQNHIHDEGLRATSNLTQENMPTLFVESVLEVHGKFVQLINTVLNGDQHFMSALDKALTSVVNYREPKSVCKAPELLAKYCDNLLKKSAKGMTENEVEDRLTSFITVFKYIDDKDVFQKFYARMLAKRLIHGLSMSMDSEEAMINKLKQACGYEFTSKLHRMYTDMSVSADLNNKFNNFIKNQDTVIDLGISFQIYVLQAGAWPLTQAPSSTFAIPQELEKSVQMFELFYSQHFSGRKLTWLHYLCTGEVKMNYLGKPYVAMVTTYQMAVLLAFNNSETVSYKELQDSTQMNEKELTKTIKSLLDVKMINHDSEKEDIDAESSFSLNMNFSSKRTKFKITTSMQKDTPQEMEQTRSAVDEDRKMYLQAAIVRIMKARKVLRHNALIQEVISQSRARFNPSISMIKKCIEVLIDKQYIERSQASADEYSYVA
UniProt Q13616, whole entry, looked up: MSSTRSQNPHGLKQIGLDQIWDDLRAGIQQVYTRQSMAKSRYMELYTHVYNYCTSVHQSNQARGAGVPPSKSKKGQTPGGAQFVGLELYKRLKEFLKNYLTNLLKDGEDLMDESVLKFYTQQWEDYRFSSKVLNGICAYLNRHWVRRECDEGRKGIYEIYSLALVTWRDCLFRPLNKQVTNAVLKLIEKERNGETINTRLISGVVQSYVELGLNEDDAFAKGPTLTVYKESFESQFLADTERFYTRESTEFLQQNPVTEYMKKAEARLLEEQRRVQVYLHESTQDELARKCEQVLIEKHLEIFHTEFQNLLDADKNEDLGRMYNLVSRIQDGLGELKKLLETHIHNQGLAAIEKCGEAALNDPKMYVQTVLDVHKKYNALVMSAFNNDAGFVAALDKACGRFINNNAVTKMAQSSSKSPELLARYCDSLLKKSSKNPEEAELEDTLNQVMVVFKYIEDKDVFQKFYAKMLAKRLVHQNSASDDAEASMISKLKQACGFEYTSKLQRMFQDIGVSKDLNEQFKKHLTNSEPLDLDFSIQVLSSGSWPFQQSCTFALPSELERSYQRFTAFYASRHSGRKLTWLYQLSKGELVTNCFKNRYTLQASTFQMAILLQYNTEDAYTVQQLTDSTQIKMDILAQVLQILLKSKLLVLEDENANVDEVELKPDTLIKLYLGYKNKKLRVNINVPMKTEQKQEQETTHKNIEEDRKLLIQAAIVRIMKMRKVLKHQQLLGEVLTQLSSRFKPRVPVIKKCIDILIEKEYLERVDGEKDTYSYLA
UniProt P49711: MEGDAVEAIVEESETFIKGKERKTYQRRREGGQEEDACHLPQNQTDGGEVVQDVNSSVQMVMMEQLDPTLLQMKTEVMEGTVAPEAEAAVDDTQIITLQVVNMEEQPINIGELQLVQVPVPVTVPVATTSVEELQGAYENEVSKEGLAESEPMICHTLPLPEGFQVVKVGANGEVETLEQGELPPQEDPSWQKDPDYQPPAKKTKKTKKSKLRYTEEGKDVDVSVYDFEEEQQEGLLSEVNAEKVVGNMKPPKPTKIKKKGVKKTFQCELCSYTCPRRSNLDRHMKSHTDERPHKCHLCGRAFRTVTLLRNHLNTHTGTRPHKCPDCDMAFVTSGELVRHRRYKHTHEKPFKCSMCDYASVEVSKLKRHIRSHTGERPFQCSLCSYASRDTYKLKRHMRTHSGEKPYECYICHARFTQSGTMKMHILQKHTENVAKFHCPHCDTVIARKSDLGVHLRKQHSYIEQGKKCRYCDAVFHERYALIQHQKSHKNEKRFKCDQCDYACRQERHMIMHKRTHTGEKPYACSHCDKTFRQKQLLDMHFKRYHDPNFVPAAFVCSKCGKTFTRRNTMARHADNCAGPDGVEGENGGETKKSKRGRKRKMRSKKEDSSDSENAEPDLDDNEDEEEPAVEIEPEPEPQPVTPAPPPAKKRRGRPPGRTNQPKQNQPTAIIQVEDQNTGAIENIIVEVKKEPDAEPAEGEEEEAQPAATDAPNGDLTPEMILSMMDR
UniProt Q6UW02: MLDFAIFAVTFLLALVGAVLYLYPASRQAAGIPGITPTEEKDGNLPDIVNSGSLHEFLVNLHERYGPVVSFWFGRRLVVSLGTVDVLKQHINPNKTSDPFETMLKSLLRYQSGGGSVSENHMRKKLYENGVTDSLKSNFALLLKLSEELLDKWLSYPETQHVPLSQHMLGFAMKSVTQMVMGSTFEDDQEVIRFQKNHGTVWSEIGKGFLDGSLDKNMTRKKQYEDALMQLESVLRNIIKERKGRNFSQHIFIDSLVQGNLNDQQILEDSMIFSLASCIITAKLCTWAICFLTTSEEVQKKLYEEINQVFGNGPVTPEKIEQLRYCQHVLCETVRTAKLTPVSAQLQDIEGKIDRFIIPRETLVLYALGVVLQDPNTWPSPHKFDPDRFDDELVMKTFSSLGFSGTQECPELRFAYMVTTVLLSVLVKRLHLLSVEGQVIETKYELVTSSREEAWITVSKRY
UniProt E9PJD7, whole entry, looked up: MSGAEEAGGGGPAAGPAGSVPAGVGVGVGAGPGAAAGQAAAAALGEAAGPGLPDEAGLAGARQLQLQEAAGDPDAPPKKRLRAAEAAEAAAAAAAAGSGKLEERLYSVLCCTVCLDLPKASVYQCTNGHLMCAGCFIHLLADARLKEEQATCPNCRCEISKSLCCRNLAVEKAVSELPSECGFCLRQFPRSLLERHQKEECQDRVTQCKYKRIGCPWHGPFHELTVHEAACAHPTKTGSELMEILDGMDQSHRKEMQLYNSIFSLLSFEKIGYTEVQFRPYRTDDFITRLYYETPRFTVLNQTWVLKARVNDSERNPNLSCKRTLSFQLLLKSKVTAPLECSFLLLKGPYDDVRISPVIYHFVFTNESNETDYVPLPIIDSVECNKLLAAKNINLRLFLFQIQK
UniProt Q9NTM9: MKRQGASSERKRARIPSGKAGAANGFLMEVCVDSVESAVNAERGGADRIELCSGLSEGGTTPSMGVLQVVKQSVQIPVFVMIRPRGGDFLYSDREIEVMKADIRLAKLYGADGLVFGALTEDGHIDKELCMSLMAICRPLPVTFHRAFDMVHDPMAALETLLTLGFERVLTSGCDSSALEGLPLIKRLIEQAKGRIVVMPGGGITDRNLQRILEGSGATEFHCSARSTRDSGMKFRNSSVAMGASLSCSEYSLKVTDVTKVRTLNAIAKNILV
UniProt Q9Y4B6: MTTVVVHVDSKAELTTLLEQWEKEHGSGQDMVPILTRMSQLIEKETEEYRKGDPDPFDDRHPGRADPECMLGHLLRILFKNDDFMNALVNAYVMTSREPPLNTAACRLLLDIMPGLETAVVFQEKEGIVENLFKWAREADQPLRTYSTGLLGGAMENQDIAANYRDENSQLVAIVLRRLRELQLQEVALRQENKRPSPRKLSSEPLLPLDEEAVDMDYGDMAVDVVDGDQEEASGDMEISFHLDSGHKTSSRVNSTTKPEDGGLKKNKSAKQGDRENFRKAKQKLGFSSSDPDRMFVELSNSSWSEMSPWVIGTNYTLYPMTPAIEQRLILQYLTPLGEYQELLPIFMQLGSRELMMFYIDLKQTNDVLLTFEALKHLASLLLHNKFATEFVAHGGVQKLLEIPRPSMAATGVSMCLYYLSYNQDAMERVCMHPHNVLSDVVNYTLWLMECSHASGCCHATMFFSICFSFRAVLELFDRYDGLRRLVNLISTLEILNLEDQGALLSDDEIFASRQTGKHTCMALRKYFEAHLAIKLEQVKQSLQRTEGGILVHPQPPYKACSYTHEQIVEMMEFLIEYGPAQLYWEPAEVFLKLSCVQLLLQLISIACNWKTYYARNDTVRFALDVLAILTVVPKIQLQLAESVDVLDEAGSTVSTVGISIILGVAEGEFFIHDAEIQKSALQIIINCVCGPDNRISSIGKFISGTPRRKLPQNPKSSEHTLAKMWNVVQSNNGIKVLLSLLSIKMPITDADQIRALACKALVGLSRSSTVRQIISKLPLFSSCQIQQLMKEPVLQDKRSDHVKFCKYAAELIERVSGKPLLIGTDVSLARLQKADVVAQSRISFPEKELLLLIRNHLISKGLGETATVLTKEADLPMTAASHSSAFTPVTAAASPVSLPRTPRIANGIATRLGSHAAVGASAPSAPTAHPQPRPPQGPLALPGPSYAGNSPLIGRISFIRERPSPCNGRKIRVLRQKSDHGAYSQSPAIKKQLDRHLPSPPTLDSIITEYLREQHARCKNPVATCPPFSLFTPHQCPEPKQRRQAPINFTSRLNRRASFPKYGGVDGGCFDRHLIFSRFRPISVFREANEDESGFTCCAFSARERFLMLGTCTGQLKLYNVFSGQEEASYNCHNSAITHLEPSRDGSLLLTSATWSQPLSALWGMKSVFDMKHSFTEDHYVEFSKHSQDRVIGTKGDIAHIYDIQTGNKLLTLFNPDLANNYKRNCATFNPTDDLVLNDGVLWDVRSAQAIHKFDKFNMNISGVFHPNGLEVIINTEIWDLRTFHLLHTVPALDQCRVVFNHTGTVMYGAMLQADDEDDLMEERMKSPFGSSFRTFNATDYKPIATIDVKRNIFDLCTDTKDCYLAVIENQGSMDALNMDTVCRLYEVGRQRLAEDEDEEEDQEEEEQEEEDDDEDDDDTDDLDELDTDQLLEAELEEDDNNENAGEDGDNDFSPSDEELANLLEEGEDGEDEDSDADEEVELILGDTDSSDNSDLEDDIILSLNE
UniProt P0DMU9: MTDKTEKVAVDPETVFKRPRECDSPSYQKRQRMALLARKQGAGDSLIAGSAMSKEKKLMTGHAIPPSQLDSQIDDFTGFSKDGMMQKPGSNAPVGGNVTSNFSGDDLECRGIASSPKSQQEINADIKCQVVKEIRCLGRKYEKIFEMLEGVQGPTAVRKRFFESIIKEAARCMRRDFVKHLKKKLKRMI
UniProt Q9UHQ9: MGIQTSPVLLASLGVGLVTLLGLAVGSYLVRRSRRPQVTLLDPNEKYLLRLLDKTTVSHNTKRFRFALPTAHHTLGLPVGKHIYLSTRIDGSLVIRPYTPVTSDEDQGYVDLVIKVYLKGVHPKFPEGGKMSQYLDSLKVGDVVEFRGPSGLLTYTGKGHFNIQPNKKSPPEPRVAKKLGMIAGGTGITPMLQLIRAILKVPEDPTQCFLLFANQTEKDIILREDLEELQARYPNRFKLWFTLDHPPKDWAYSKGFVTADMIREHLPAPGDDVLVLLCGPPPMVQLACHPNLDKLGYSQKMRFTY

log2 fold change, inactive:
CTPS2 (UniProt Q9NRF8) -0.038
CWC25 (UniProt Q9NXE8) 0.196
CYFIP2 (UniProt Q96F07) 0.037
CZIB (UniProt Q9NWV4) 0
DARS (UniProt P14868) 0.026
CYCS (UniProt P99999) 0.034
DARS2 (UniProt Q6PI48) -0.028
DAP3 (UniProt P51398) 0.075
CTBP1 (UniProt Q13363) 0.141
DCTN2 isoform 2 (UniProt Q13561) -0.017
CSTF1 (UniProt Q05048) -0.098
DCAKD (UniProt Q8WVC6) 0.032
DCK (UniProt P27707) -0.023
CYB5R4 (UniProt Q7L1T6) -0.025
CWF19L1 (UniProt Q69YN2) -0.025
DCAF11 (UniProt Q8TEB1) -0.04
CSTF2T (UniProt Q9H0L4) -0.025
CTU2 (UniProt Q2VPK5) 0.023
CUL2 isoform 2 (UniProt Q13617) -0.022
CTNNA2 (UniProt P26232) 0.015
CYB5R2 (UniProt Q6BCY4) 0.015
DCPS (UniProt Q96C86) 0.008
CTIF isoform 2 (UniProt O43310) -0.136
CUL1 (UniProt Q13616) -0.051
CTCF (UniProt P49711) 0.054
CSTB (UniProt P04080) -0.009
CUL3 (UniProt Q13618) -0.054
CTH (UniProt P32929) -0.069
CUL4B (UniProt K4DI93) -0.07
CYP20A1 (UniProt Q6UW02) -0.053
DCTN6 (UniProt O00399) -0.058
CYHR1 (UniProt E9PJD7) 0.052
CUTC (UniProt Q9NTM9) -0.042
DCP1A (UniProt Q9NPI6) 0.044
CSPP1 (UniProt Q1MSJ5) 0.133
DCAF1 (UniProt Q9Y4B6) 0.01
CT45A10 (UniProt P0DMU9) 0.156
CYB5R1 (UniProt Q9UHQ9) -0.015
DCTN3 (UniProt O75935) 0.027

Reprinted from above for reference:
log2 fold change, inactive:
CTPS2 (UniProt Q9NRF8) -0.038
CWC25 (UniProt Q9NXE8) 0.196
